No constants are given. Whether binding was seen depends on the method and setting.

Amino acid sequences for entries named in this document (tags omitted).
UniProt P54860: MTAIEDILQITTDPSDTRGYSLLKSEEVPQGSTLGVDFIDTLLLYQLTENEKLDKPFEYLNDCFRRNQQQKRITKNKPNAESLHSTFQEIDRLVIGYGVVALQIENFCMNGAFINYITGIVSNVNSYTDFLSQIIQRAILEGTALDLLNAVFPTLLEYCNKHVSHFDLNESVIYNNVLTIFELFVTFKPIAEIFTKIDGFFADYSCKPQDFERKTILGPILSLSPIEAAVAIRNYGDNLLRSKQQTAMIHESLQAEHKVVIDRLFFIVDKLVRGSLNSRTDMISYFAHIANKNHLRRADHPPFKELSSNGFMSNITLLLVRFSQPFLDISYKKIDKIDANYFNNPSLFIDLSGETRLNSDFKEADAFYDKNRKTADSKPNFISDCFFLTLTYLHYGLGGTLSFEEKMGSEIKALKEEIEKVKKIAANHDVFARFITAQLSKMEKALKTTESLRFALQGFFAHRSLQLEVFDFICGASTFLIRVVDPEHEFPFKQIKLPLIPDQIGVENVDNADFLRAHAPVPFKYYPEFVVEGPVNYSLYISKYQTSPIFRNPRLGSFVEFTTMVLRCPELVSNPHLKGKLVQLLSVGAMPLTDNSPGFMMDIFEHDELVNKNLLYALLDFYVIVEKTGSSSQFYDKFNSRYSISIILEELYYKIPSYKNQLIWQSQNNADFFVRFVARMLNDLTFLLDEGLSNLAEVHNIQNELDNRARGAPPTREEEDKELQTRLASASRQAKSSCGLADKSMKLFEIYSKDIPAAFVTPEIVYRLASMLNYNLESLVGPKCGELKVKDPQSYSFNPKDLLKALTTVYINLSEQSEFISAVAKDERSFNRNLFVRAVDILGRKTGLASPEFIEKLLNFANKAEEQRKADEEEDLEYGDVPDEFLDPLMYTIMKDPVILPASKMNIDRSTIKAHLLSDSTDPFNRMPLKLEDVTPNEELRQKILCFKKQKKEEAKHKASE

This assay concerns the target GST-Ufd2p (S. cerevisiae) (UniProt P54860). Put plainly: pull-down; equal amounts of GST-Ufd2p and untagged Ufd2p mixed with increasing amounts of Lys29-linked Ubn-GFP; GST beads; blot with anti-Ufd2; both purified.

In the case of “GST-Ufd2p (from UniProt P54860 1-961) (enzyme)”, the binding entry is given as “no binding”.

The values above are taken from publication PMC5303827 (Nature Communications, 2017).
